Assay results reported in paper PMC4891089.
Results are given in words; binding and its absence hold for the method and conditions named. In cells and extracts the contact can be indirect. Some results given as binding are weak or reduced against the parent protein; the word gives no strength.

Chains of the proteins cited; added tags and fusions are not shown.
UniProt P15976: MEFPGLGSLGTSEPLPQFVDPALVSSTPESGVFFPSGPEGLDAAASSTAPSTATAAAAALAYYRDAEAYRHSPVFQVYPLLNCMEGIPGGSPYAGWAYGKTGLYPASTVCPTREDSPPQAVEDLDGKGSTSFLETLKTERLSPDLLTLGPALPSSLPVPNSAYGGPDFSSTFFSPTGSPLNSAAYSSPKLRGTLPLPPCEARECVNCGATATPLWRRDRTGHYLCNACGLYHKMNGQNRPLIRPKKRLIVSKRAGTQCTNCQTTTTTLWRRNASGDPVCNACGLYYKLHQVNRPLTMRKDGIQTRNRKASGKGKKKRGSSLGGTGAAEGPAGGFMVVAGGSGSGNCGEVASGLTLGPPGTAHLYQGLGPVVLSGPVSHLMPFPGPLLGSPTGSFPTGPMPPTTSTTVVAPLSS
UniProt Q00403: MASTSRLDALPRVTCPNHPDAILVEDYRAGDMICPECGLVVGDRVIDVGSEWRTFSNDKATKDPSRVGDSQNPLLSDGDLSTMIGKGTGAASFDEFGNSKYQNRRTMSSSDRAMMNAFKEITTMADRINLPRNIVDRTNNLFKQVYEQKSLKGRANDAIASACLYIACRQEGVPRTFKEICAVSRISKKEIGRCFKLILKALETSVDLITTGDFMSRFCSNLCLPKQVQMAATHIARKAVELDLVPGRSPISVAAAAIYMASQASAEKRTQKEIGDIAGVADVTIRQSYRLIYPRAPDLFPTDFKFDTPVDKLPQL

Columns and labels:
[1] = target: T1, SET7 (endogenous, MCF7 cells) (human (endogenous in MCF7)) (UniProt Q8WTS6); experiment: co-IP; reciprocal co-immunoprecipitation of endogenous proteins from cell lysate (MCF7); antibodies overnight at 4°C, protein G or A agarose, immunoblot
T1 sequence: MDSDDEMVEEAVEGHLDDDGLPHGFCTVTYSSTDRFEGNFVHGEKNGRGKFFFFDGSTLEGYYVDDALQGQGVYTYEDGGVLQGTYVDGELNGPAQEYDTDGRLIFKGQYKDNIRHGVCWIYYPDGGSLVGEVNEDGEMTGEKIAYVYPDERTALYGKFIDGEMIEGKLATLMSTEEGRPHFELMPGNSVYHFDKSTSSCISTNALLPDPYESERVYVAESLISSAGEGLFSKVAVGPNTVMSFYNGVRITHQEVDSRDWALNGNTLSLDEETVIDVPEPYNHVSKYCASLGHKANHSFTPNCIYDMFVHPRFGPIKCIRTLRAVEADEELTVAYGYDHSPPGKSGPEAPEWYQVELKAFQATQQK

[2] = target: GATA1 (endogenous, MCF7 cells) (human (endogenous in MCF7)) (UniProt P15976); experiment: as above

| Substance | binding [1] | binding [2] |
| --- | --- | --- |
| GATA1 (endogenous, MCF7 cells) (from UniProt P15976 1-413) | binds | – |
| TFIIB (endogenous) (from UniProt Q00403 1-316) | binds | binds |
